Some of these results come from one statement about several compounds together.
Molecular target: T1, human α4β2 nicotinic acetylcholine receptor subtype expressed in HEK-293 cells (Homo sapiens, UniProt P17787+P43681)
T1 construct: expressed in transfected cells
Assay: Calcium flux assay (FLIPR) in HEK-293 cells expressing human α4β2
Type: cell-based
Settings: in the presence of Compound 1 at 10 μM
Description: Calcium Flux Assays Using Cells Expressing nAChR Subtypes
Human embryonic kidney (HEK) 293 cells stably expressing human α4β2 or α3β4 combinations are grown to confluency in 162 cm^2 tissue culture flasks in DMEM media supplemented with 10% FBS and 25 μg/ml zeocin and 200 μg/ml hygromycin B. IMR-32 neuroblastoma cells (ATCC) are grown to confluency in 162 cm^2 tissue culture flasks in minimum essential media supplemented with 10% FBS and 1 mM sodium pyruvate, 1% non-essential amino acids and 1% antibiotic-antimycotic. […] Calcium flux was measured using calcium-3 assay kit (Molecular Devices, Sunnyvale, Calif.) or fluo-4 (Invitrogen). […] The cells were loaded with 100 μl of the dye per well and incubated at room temperature for up to one hour for HEK 293 clonal stable cell lines or 30 minutes-45 minutes at 37° C. for IMR-32 cells Fluorescence measurements were read simultaneously from all the wells by a Fluorometic Imaging Plate Reader (FLIPR) at an excitation wavelength of 480 nm and an emission wavelength of 520 nm. Baseline fluorescence was measured for the first 6 seconds at which 3× concentrations of modulator/test compounds were added to the cell plate at 50 μl and incubated for five minutes. The fluorescence intensity was captured every second for the first 1 minute followed by every 5 seconds for an additional 4 minutes. […]

The chains behind the UniProt entries cited, without tags or fusion partners. Residues count along the entry.
UniProt P17787, 26-502: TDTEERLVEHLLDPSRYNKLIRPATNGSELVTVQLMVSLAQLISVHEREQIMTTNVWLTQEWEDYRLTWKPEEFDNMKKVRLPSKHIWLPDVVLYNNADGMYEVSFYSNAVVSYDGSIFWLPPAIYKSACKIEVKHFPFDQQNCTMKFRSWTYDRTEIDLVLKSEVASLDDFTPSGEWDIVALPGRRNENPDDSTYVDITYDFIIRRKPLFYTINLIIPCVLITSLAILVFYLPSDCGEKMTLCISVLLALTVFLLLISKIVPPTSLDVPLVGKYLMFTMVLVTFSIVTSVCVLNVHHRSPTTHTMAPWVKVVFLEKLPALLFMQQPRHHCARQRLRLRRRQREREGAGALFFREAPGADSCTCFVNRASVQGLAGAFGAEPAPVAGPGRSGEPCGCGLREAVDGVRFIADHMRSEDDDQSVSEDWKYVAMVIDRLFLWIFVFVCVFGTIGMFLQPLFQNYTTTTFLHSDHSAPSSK
UniProt P43681, 29-627 limits assumed: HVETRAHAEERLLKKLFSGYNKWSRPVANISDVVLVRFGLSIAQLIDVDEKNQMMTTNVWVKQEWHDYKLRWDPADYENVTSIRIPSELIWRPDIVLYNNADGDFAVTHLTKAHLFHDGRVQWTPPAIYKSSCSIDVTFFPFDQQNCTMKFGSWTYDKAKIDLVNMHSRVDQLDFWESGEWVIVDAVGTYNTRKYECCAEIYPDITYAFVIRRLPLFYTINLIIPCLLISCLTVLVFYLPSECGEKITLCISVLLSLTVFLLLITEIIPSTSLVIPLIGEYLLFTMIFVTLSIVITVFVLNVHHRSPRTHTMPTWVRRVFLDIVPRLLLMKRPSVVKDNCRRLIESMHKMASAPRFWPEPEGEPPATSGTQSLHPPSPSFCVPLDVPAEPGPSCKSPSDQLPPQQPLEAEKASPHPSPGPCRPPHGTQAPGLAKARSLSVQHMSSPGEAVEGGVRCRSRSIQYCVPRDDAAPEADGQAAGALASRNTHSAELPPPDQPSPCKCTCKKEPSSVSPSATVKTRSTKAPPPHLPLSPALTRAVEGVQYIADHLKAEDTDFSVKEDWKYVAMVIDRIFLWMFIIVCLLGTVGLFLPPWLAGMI

For N[C@@H]1CCN(c2cccnc2)C1 [Compound B, (3R)-1-pyridin-3-ylpyrrolidin-3-amine], the “shift to the left of the agonist concentration-response (EC50)” value was 10-100 fold.

Reference: patent US9040568B2, “Pharmaceutical compositions for the treatment of pain” (AbbVie Inc., priority 2009, dated 2015)
